The record followed here is publication PMC4914336.

Chains of the proteins cited; added tags and fusions are not shown. Residues count along the entry.
UniProt P11021, residues 19-654: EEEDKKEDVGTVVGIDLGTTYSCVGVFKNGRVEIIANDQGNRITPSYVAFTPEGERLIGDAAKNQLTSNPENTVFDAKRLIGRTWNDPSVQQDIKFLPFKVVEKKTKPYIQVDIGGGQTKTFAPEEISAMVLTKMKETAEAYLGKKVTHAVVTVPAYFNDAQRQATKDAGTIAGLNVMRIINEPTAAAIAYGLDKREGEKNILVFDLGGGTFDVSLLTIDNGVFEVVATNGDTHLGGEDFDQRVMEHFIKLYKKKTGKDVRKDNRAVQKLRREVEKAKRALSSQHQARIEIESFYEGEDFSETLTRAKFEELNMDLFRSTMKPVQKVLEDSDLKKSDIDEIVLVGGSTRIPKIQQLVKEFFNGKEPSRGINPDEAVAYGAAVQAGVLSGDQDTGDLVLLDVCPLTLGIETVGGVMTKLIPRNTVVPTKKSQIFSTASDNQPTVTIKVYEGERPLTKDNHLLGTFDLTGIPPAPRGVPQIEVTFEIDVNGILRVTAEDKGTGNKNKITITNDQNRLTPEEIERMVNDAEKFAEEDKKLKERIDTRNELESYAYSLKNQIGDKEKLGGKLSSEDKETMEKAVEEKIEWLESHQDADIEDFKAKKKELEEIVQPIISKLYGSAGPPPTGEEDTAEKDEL

No constants are given. Whether binding was seen depends on the method and setting. In cells and extracts the contact can be indirect. Some entries that bind do so weakly or less than the wild type.

For this assay, the target named is GRP78 (human (endogenous; the cell line of this experiment is not given)) (UniProt P11021). Description: co-IP; immuno-precipitates of endogenous HSP90, GRP78, HSP70 or HSP27 from cells expressing only endogenous levels; cells treated with vehicle, OSU-03012, pazopanib or AR-13; blots of co-precipitating proteins.

B1: WASF3 (protein, UniProt Q9UPY6 1-502)
chain: MPLVKRNIEPRHLCRGALPEGITSELECVTNSTLAAIIRQLSSLSKHAEDIFGELFNEANNFYIRANSLQDRIDRLAVKVTQLDSTVEEVSLQDINMKKAFKSSTVQDQQVVSKNSIPNPVADIYNQSDKPPPLNILTPYRDDKKDGLKFYTDPSYFFDLWKEKMLQDTEDKRKEKRRQKEQKRIDGTTREVKKVRKARNRRQEWNMMAYDKELRPDNRLSQSVYHGASSEGSLSPDTRSHASDVTDYSYPATPNHSLHPQPVTPSYAAGDVPPHGPASQAAEHEYRPPSASARHMALNRPQQPPPPPPPQAPEGSQASAPMAPADYGMLPAQIIEYYNPSGPPPPPPPPVIPSAQTAFVSPLQMPMQPPFPASASSTHAAPPHPPSTGLLVTAPPPPGPPPPPPGPPGPGSSLSSSPMHGPPVAEAKRQEPAQPPISDARSDLLAAIRMGIQLKKVQEQREQEAKREPVGNDVATILSRRIAVEYSDSDDDSEFDENDWSD
Turning to B1, the binding result is given as “binds”.
